# Results reported in patent publication US5459077A, “Methods for modelling tertiary structures of biologically active ligands and for modelling agonists and antagonists thereto” (PepMetics, Inc., priority 1993, dated 1995).
# Bridge positions count the residues as written; N and C are the ends. Square brackets hold non-standard residues; d marks the D form. Peptide text beside a SMILES is read from it. Sar = CNCC(=O)O
# Test: nanosecond time-resolved fluorescence decay of excited-state tyrosinate (long lifetime fluorescence, LLF)
# Conditions: for LLF (long lifetime fluorescence): emission 350 nm
# [1] = solvent propane-1,2-diol (propylene glycol)
Compound,% LLF (percent of conformer(s) giving rise to LLF) (solvent isopropanol),LLF (long lifetime fluorescence) (solvent isopropanol),% LLF (percent of conformer(s) giving rise to LLF) [1],LLF (long lifetime fluorescence) [1],percent LLF (aqueous SDS above critical micelle concentration),percent LLF (solvent trifluoroethanol)
CC[C@H](C)[C@H](NC(=O)[C@H](Cc1ccc(O)cc1)NC(=O)[C@@H](NC(=O)[C@H](CCCNC(=N)N)NC(=O)CNC)C(C)C)C(=O)N[C@@H](Cc1ccccc1)C(=O)N1CCC[C@H]1C(=O)N[C@@H](Cc1ccccc1)C(=O)O [C] (H-[Sar]RVYIFPF-OH),11%,9.3 nanoseconds,11%,18.8 nanoseconds,,
CC[C@H](C)[C@H](NC(=O)[C@H](Cc1ccc(O)cc1)NC(=O)[C@@H](NC(=O)[C@H](CCCNC(=N)N)NC(=O)CNC)C(C)C)C(=O)N[C@@H](Cc1c[nH]cn1)C(=O)N1CCC[C@H]1C(=O)N[C@@H](CC1CCCCC1)C(=O)O [D],,0 nanoseconds,13%,14.9 nanoseconds,,
CC[C@H](C)[C@H](NC(=O)[C@H](Cc1ccc(O)cc1)NC(=O)[C@@H](NC(=O)[C@@H](N)CCCNC(=N)N)C(C)C)C(=O)N[C@@H](Cc1c[nH]cn1)C(=O)N1CCC[C@H]1C(=O)N[C@@H](CC1CCCCC1)C(=O)O [E],,0 nanoseconds,10%,16.2 nanoseconds,,
CC[C@H](C)[C@H](NC(=O)[C@H](Cc1ccc(O)cc1)NC(=O)[C@@H](NC(=O)[C@H](CCCNC(=N)N)NC(=O)CNC)C(C)C)C(=O)N[C@@H](Cc1c[nH]cn1)C(=O)N1CCC[C@H]1C(=O)N[C@@H](Cc1ccccc1)C(N)=O [F],3%,11.6 nanoseconds,6%,9.2 nanoseconds,,
CC[C@H](C)[C@H](NC(=O)[C@H](Cc1ccc(O)cc1)NC(=O)[C@@H](NC(=O)[C@H](CCCNC(=N)N)NC(=O)CNC)C(C)C)C(=O)N[C@@H](C)C(=O)N1CCC[C@H]1C(=O)N[C@@H](Cc1ccccc1)C(=O)O [G] (H-[Sar]RVYIAPF-OH),,0 nanoseconds,35%,6.6 nanoseconds,,
CC[C@H](C)[C@H](NC(=O)[C@H](Cc1ccc(O)cc1)NC(=O)[C@@H](NC(=O)[C@H](CCCNC(=N)N)NC(=O)CNC)C(C)C)C(=O)N[C@@H](Cc1c[nH]cn1)C(=O)N1CCC[C@@H]1C(=O)N[C@@H](Cc1ccccc1)C(=O)O [I],12%,8.5 nanoseconds,8%,10.2 nanoseconds,,
CC[C@H](C)[C@H](NC(=O)[C@@H]1CCCN1C(=O)[C@H](Cc1c[nH]cn1)NC(=O)[C@@H](NC(=O)[C@H](Cc1ccc(O)cc1)NC(=O)[C@@H](NC(=O)[C@H](CCCNC(=N)N)NC(=O)CNC)C(C)C)[C@@H](C)CC)C(=O)O [J],20%,,,,,
CC[C@H](C)[C@H](NC(=O)[C@H](Cc1ccc(O)cc1)NC(=O)[C@@H](NC(=O)[C@@H](N)CCCNC(=N)N)C(C)C)C(=O)N[C@@H](Cc1c[nH]cn1)C(=O)N1CCC[C@H]1C(=O)N[C@@H](Cc1ccccc1)C(=O)O [K],14%,10.2 nanoseconds,10%,7.4 nanoseconds,,
"CC[C@H](C)[C@H](NC(=O)[C@H](Cc1ccc(O)cc1)NC(=O)[C@@H](NC(=O)[C@H](CCCNC(=N)N)NC(=O)[C@@H](N)CC(=O)O)C(C)C)C(=O)N[C@@H](Cc1c[nH]cn1)C(=O)N1CCC[C@H]1C(=O)N[C@@H](Cc1ccccc1)C(=O)O [Ligand A, Angiotensin II, reference compound]",79%,15.5 nanoseconds,19%,20.8 nanoseconds,14%,19%
"CC[C@H](C)[C@H](NC(=O)[C@@H]1CCCN1C(=O)[C@H](Cc1c[nH]cn1)NC(=O)[C@@H](NC(=O)[C@H](Cc1ccc(O)cc1)NC(=O)[C@@H](NC(=O)[C@H](CCCNC(=N)N)NC(=O)CNC)C(C)C)[C@@H](C)CC)C(=O)O [Ligand J, [Sar^1 Ile^8]Angiotensin II, reference compound]",,6.5 nanoseconds,,0 nanoseconds,,
CC[C@H](C)[C@@H]1NC(=O)[C@H](Cc2ccc(O)cc2)NC(=O)[C@@H](N)CSSC[C@@H](C(=O)N2CCC[C@H]2C(=O)N[C@@H](CC(C)C)C(=O)NCC(N)=O)NC(=O)[C@H](C)NC(=O)[C@H](CCC(N)=O)NC1=O [[Ala^5]] (H-CYIQACPLG-NH2; disulfide 1-6),,,,7.6 nanoseconds,,
"CC[C@H](C)[C@@H]1NC(=O)[C@H](Cc2ccc(O)cc2)NC(=O)[C@@H](N)CSSC[C@@H](C(=O)N2CCC[C@H]2C(=O)N[C@@H](CC(C)C)C(=O)NCC(N)=O)NC(=O)[C@H](CC(N)=O)NC(=O)[C@H](CCC(N)=O)NC1=O [oxytocin, Oxytocin, reference compound]",,,,18.5 nanoseconds,,
[Sar^1 Tyr(Me)^4 ]Angiotensin II [reference compound],79%,,19%,20.8 nanoseconds,,
"[Tyr(Me)^4 ]Angiotensin III [B, reference compound]",10%,,46%,13.1 nanoseconds,,
